Laboratory results: article PMC11163727
These are yes or no findings as the source states them, for the method shown. Binding seen in cells or lysates may run through a third protein. Some results given as binding are weak or reduced against the parent protein; the word gives no strength.

The chains behind the UniProt entries cited, without tags or fusion partners. Residues count along the entry.
UniProt Q15910: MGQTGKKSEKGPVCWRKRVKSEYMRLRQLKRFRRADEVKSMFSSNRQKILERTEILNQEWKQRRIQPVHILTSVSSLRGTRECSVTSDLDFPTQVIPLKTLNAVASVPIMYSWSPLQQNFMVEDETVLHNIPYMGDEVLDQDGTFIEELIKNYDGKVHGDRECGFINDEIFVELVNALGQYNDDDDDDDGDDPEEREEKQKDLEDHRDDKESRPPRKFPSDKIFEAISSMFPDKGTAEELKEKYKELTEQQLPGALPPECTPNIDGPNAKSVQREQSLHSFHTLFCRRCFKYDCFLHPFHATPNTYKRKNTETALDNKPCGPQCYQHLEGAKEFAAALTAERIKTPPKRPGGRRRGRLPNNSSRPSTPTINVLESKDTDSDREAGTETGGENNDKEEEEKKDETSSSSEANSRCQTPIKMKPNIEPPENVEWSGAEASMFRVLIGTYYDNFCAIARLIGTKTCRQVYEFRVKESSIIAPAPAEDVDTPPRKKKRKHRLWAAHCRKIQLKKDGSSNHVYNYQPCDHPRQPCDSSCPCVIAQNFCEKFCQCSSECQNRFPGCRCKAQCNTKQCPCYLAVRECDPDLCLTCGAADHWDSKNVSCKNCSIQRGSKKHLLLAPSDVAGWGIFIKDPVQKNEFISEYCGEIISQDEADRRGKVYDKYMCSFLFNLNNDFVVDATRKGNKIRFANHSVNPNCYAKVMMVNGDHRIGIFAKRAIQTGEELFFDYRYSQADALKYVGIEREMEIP
UniProt Q15022: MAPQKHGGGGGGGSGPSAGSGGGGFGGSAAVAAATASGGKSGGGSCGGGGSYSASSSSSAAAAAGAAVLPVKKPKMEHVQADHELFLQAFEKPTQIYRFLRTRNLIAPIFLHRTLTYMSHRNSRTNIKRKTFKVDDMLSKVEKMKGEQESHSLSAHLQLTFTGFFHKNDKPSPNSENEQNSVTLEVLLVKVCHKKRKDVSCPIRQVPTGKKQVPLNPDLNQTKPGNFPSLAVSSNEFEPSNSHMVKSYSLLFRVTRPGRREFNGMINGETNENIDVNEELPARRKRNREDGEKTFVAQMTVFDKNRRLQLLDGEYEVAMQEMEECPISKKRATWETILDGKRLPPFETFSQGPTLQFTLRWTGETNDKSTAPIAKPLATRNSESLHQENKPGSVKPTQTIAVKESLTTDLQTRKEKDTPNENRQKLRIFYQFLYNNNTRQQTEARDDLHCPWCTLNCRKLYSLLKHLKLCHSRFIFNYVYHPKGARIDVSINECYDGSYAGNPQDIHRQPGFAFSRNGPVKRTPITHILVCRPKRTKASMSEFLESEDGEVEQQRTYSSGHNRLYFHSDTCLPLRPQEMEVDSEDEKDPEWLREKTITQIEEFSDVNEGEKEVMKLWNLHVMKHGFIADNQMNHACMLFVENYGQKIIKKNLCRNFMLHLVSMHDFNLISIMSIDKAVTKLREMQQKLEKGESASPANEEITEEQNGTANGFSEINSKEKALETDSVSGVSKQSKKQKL
UniProt P08174, residues 35-353: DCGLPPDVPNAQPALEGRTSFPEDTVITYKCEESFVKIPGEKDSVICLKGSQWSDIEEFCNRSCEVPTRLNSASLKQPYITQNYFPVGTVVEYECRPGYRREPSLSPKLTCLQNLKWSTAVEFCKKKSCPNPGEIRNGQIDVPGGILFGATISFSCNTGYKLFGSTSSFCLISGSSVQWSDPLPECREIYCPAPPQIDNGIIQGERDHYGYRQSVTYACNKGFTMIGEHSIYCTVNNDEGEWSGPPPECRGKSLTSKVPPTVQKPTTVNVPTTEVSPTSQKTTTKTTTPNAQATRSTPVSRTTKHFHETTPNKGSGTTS

Columns and labels:
[1] = biological target: T1, Zinc finger MYND domain-containing protein 8 (ZMYND8) (human (endogenous in CP70)) (UniProt Q9ULU4); assay: co-IP; CP70 cells transduced with empty vector or CD55, lysed in IP lysis buffer; IP with 3 ug CD55 or ZMYND8 antibody overnight at 4 C, magnetic A/G beads, immunoblot
T1 sequence: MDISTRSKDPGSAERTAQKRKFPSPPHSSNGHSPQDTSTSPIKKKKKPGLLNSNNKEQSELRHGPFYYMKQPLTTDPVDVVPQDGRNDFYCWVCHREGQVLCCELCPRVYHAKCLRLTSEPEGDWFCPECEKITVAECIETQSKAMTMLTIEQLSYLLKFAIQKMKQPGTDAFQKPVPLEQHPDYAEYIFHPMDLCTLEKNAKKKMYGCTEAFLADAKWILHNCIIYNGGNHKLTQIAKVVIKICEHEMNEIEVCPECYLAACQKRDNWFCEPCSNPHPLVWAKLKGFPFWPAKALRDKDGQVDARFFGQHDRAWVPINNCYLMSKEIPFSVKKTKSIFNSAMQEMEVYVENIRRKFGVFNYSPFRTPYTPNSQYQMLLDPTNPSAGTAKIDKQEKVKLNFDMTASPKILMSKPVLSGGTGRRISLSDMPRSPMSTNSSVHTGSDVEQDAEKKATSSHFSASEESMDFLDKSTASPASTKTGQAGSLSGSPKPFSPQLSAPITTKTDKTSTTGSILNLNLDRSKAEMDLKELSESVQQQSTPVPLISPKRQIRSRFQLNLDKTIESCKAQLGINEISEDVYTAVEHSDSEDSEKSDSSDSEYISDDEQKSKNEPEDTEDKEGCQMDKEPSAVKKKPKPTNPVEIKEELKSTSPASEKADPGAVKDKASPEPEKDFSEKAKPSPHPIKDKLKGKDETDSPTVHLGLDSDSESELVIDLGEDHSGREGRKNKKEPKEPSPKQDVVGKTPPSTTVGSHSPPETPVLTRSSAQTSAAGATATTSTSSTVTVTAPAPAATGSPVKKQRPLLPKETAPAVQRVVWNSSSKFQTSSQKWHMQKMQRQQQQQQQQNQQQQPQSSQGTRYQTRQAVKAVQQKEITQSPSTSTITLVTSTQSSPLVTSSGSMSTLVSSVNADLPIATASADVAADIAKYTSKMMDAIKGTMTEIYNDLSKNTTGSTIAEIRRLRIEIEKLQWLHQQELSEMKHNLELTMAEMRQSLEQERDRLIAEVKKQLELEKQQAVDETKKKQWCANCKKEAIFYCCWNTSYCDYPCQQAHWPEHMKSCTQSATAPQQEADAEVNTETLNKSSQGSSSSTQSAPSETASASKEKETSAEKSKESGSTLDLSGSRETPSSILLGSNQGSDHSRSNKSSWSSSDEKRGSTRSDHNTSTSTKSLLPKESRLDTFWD

[2] = biological target: Enhancer of zeste homolog 2 (EZH2) (human (endogenous in CP70)) (UniProt Q15910); assay: co-IP; nuclear fractions of CP70 CD55 OE cells; IP with ZMYND8, SUZ12 or EZH2 antibody, immunoblot
[3] = biological target: T1, Zinc finger MYND domain-containing protein 8 (ZMYND8) (human (endogenous in CP70)); assay: as above
[4] = biological target: SUZ12 (human (endogenous in CP70)) (UniProt Q15022); assay: as above

Q: How did the binding [1] turn out when “CD55 (complement decay-accelerating factor), endogenous in CP70 cells (from UniProt P08174 35-353)” was run?
A: binds

Q: For “Wild type full length CD55 overexpressed in CP70 cells (CD55 OE) (from UniProt P08174 35-353)”, which binding [2] is on record?
A: binds

Q: What about the binding [3] of the same substance?
A: binds

Q: What about the binding [4] of the same substance?
A: binds

Q: What about the binding [1] of the same substance?
A: binds
